Here are results for 2 substances from PMC9456277.

Test [1] deals with T1, GST-tagged N-terminal ICD of TRPC4 (mouse) (UniProt Q9QUQ5).
T1 sequence: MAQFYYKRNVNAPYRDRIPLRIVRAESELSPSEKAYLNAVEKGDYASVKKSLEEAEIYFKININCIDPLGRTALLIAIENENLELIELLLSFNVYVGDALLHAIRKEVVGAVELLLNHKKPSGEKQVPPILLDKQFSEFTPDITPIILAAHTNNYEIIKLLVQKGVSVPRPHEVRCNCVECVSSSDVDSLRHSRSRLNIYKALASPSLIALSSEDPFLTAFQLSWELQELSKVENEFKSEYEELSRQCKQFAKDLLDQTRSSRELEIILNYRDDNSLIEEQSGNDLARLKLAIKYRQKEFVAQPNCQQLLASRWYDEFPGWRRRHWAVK
The test is described as follows: ELISA; N-terminal TRPC-ICDs or TRPC1 peptide substrate-coated (10 µg/mL in PBS, 4 °C overnight), increasing concentrations of NCAM-ICDs or CHL1-ICD for 1.5 h at room temperature; detection with NCAM antibody P61 or GTX133217 or CHL1 antibody C-18; both purified. (In general: An ELISA detects its analyte on a solid surface through an enzyme-linked reagent.)

The target of test [2] is T2, GST-tagged N-terminal ICD of TRPC5 (mouse) (UniProt Q9QX29).
T2 sequence: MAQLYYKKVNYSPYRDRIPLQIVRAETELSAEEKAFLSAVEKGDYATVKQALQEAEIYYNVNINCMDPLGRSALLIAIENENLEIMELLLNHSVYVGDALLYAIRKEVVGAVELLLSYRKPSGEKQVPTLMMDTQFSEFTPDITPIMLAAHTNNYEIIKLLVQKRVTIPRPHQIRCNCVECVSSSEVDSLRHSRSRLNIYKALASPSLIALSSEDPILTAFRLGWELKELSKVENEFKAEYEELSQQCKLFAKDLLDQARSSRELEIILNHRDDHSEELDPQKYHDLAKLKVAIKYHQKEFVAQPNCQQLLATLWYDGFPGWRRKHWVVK
The test is described as above.

Results are given in words; binding and its absence hold for the method and conditions named. Sequences can lack the tags named with a protein.

For “His-tagged NCAM140-ICD with deletion of the C-terminal part (rat) (domain or fragment)”, the binding entry in test [1] and in test [2] was “no binding” each time.

Regarding “His-tagged NCAM140-ICD with deletion of the N-terminal part (rat) (domain or fragment)”, the binding result in test [1] and in test [2] was “no binding” each time.
